Data published in patent US20050227289A1 (published 2005).
These are yes or no findings as the source states them, for the method shown. Some binding calls cover weakened binding; strength is not graded here.

Columns and labels:
[1] = target: T1, soluble EpoR (EposR), soluble recombinant human erythropoietin receptor (human) (UniProt P19235); test: equilibrium titration of soluble EpoR on yeast-displayed scFv at 37 C, flow cytometry, detection with MAB307 + anti-mouse RPE
T1 sequence (looked up): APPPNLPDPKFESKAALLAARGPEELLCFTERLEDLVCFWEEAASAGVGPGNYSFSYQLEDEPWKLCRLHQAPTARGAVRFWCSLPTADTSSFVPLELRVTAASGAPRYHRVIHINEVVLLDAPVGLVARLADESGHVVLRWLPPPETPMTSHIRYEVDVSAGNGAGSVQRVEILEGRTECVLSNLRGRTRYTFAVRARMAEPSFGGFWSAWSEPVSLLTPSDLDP

[2] = target: T1, soluble EpoR (EposR), soluble recombinant human erythropoietin receptor (human); test: dissociation of pre-bound 0.5 uM EposR from yeast-displayed scFv at 37 C in the presence of excess Ab12 IgG1 as competitor, flow cytometry, detection with MAB307 + anti-mouse PE
[3] = target: T1, soluble EpoR (EposR), soluble recombinant human erythropoietin receptor (human); test: off-rate analysis on yeast, flow cytometry, 0.5 µM EposR, competition with Ab12 IgG1, detection with MAB307 and anti-mouse PE

Measured: binding

B1: Ab12 41/40 scFv (displayed on the surface of yeast) (scFv, not shown: large carriers)
scFv: GENKVEYAPALMALSQVQLQESGPGLVKPSETLSLTCTVSGASISSYYWSWIRQPPGKGLEWIGYIYYSGSTNYNPSLKSRVTISVDTSKNQFSLKLRSVTAADTAVYYCARERLGIGDYWGQGTLVTVSSGPAKELTPLKEAKVSDIQLTQSPSSLSASVGDRVTITCRASQGIRNDLGWYQQKPGKAPKRLIYAASSLQSGVPSRFSGSGSGTEFTLTISSLQPEDFATYYCLQHNTYPPTFGQGTKVEIK
binds: all assays above
